Data published in paper PMC7819943, “Rice protein-binding microarrays: a tool to detect cis-acting elements near promoter regions in rice”.
This is one part of the list.

Sequences of proteins named here, by UniProt entry; tags and fusion partners are left off.
UniProt Q0JBA9, entry or part of it: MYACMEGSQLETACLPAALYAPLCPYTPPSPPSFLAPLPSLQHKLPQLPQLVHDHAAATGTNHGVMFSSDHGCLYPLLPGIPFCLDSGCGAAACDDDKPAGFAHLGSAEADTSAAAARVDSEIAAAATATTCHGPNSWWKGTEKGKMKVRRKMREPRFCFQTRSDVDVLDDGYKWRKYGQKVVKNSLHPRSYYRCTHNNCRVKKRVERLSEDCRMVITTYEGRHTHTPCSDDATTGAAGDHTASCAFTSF

Each sequence was assayed against OsWRKY34 (Oryza sativa, UniProt Q0JBA9 1-250) (assay: protein-binding microarray (RPBM); PBS, 2% BSA, 51.3 ng/ul salmon testes DNA, 50 uM zinc acetate, 200 nM TF, 25 C, 1 h; high values mean tight binding). Conditions: protein: recombinant; tags: N-terminal polyhistidine and DsRed monomer fusion (pET32a); label: CyDye5-dUTP incorporated in the synthesized complementary strand; 3' TTTTT single-stranded linker to array surface; dsDNA, one strand shown.
Summary of the method: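 Binding signal here means per-feature fluorescence intensity in arbitrary units. The values were read on an Axon 4000B scanner after a custom Agilent array, double-stranded by primer extension with Cy5-dUTP, was incubated with 200 nM protein at 25 °C for 1 h in PBS with 2% BSA, salmon testes DNA and 50 µM zinc acetate, then washed. The proteins were transcription factors with an N-terminal polyhistidine tag and DsRed, expressed in E. coli BL21-CodonPlus and purified on Ni–NTA.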
In the case of “TCCACCGCCCGTACTCCTATCGCAATGACACTCTGCCTTCCGGAGTCACCTAGTGCAG”, the binding signal is reported as 8890 fluorescence intensity (a.u.). In the case of “GTCCTCTTCTTCGATTCCTCCTCTGTTCTCGCTGGCCGTACGGAGTCACCTAGTGCAG”, the binding signal is reported as 8180 fluorescence intensity (a.u.). “CCCACTCGCTCTCTCTCTCTTCCGTCGCACCCTCTCTCTCCGGAGTCACCTAGTGCAG” was tested, and the binding signal was 14100 fluorescence intensity (a.u.). In the case of “TGCTGTTCTTGCCACCCTCTTTTTGCTTGCTCTACCATTGCGGAGTCACCTAGTGCAG”, the binding signal is reported as 8200 fluorescence intensity (a.u.). “GAGCATCTCCTATATTCATAGATTTTCACCATTGATCTTTCGGAGTCACCTAGTGCAG” was tested, and the binding signal was 9010 fluorescence intensity (a.u.). “TATCTCGTGAATTAGCTTTTATTTATGTAATTAGTTTTGTCGGAGTCACCTAGTGCAG” was tested, and the binding signal was 8890 fluorescence intensity (a.u.). With “TACTTGTTCCCGTACACCAGCACGCCCGTATGCCTACACACGGAGTCACCTAGTGCAG” the binding signal was 9330 fluorescence intensity (a.u.). In the case of “TTCCTTCTTTCTTTTATTTCGTTGTACTTTAATTTGATATCGGAGTCACCTAGTGCAG”, the binding signal is reported as 8980 fluorescence intensity (a.u.). With “CTCGCTCGCTAGGGTTTTGTCTCGATCGGGCGGGGCCTGTCGGAGTCACCTAGTGCAG” the binding signal was 9610 fluorescence intensity (a.u.). “CAGATATTATATTACGTAACATCTTCGTCAAGCTTACAATCGGAGTCACCTAGTGCAG” was tested, and the binding signal was 8860 fluorescence intensity (a.u.). In the case of “TAATTTTTTTGTCACATCGAACTTTTCTACATACACAAACCGGAGTCACCTAGTGCAG”, the binding signal is reported as 8800 fluorescence intensity (a.u.). With “TGTATCACATCTTGCTCTATGTTTGTTTTTTTTCGGACGGCGGAGTCACCTAGTGCAG” the binding signal was 11400 fluorescence intensity (a.u.). With “CTCTTCCTTGTTGGGCCGAGCCCGCGACACGACCTCGACTCGGAGTCACCTAGTGCAG” the binding signal was 8270 fluorescence intensity (a.u.). In the case of “TTTTCTCCCACCATACACAATGCCAAGTTCTGTTTTTTTTCGGAGTCACCTAGTGCAG”, the binding signal is reported as 9370 fluorescence intensity (a.u.). For “GCACCTGGCCCCTCGCCGGCCGGTTCACCGACGCCAGGTGCGGAGTCACCTAGTGCAG”, the binding signal was 8920 fluorescence intensity (a.u.). “ACGCTGACTTAGTCTCCCATCCACGGTGGTACGGCATTCACGGAGTCACCTAGTGCAG” was tested, and the binding signal was 8790 fluorescence intensity (a.u.). In the case of “GTAGAGAGGGTTTTCCAGTAGTTTTTGTTTGTTGTTGATGCGGAGTCACCTAGTGCAG”, the binding signal is reported as 8310 fluorescence intensity (a.u.). “ACCTGCATCTGTTTCTCTTTTACTTCACCTGTGATCGGGGCGGAGTCACCTAGTGCAG” was tested, and the binding signal was 10200 fluorescence intensity (a.u.). “TTTTCCTTGTCAATCCGACAGTCGGAGTCCTGAATATCGGCGGAGTCACCTAGTGCAG” was tested, and the binding signal was 8160 fluorescence intensity (a.u.). “AAAAATGTTTCCGTGGTTCGTCACCCGTGTTTAAGTCGGTCGGAGTCACCTAGTGCAG” was tested, and the binding signal was 8230 fluorescence intensity (a.u.). For “ACGCCGTTAACTTTTTATCCAATGTTTGACCATTCGTCTTCGGAGTCACCTAGTGCAG”, the binding signal was 13000 fluorescence intensity (a.u.). “CATTTACCTCCATTATATTATAGCTTTCTCTCTCTTTTTTCGGAGTCACCTAGTGCAG” was tested, and the binding signal was 11000 fluorescence intensity (a.u.). “GTAATAGTACTACACTACTACTCCACCATGTCCATCGCACCGGAGTCACCTAGTGCAG” was tested, and the binding signal was 9120 fluorescence intensity (a.u.). For “TTTGTAGTTGATTTTTTTTTATTCTAAGTCATTTTTTTTCCGGAGTCACCTAGTGCAG”, the binding signal was 9250 fluorescence intensity (a.u.). “TACACGCACATACCGTCTTTTTTGGCAGTTTCCTTTGACACGGAGTCACCTAGTGCAG” was tested, and the binding signal was 9840 fluorescence intensity (a.u.). “ATTCCGCTCACTCCCTCGGAAATTTCGTACCCATATCTTACGGAGTCACCTAGTGCAG” was tested, and the binding signal was 9490 fluorescence intensity (a.u.). “TGATTGTCTTTTCACGGAGTTGGTTGTTTTGTTGTTGAACCGGAGTCACCTAGTGCAG” was tested, and the binding signal was 10600 fluorescence intensity (a.u.). In the case of “CTACTGAGCTTTTGAATTTTTTTTCACGTCTTATTAAATGCGGAGTCACCTAGTGCAG”, the binding signal is reported as 9770 fluorescence intensity (a.u.). “AGGCCTCCACGGCTCCACCTCCTTCCGCTTTCGCCTATCCCGGAGTCACCTAGTGCAG” was tested, and the binding signal was 10000 fluorescence intensity (a.u.). With “TGTTCTTCCAAGTTCCGACGTAGATCAAGTGGTCAGCACCCGGAGTCACCTAGTGCAG” the binding signal was 8090 fluorescence intensity (a.u.). With “GATATACACACTTAGCTCTCCTACTGTGAGAATTCTCTTCCGGAGTCACCTAGTGCAG” the binding signal was 9480 fluorescence intensity (a.u.). For “CGTACGTCGCCTCGAAATGGATCCACGGTCACACACACTGCGGAGTCACCTAGTGCAG”, the binding signal was 8360 fluorescence intensity (a.u.). With “TTAATGTTCAGTCCTTGTGTGTAGCCTTGCCGGTGCAAACCGGAGTCACCTAGTGCAG” the binding signal was 8510 fluorescence intensity (a.u.). With “CCACCGCCTCTACTAAACCCTCCGCCGCCGCCGCCGCCGCCGGAGTCACCTAGTGCAG” the binding signal was 8660 fluorescence intensity (a.u.). In the case of “GCAAGAGAAATCCTTCTCCATTGTCACTGTGTCAGTTTGTCGGAGTCACCTAGTGCAG”, the binding signal is reported as 9550 fluorescence intensity (a.u.). In the case of “GCGCTCACTTTTCAGCTCATCACTCCGTCACCTCGTGCTCCGGAGTCACCTAGTGCAG”, the binding signal is reported as 8700 fluorescence intensity (a.u.). “TAGGGAAGGGTTTTTTTTTCTTAGTAAGAGTTTAGCAAAGCGGAGTCACCTAGTGCAG” was tested, and the binding signal was 10400 fluorescence intensity (a.u.). In the case of “GGTTAGATGGGCCGACTCCGCGTTTCTACCTCGGCCCAATCGGAGTCACCTAGTGCAG”, the binding signal is reported as 9760 fluorescence intensity (a.u.). “CAGGTCCATGTTACTTTTCTCCATTCATTCACACGCTCCACGGAGTCACCTAGTGCAG” was tested, and the binding signal was 8120 fluorescence intensity (a.u.). “AAACTAACTCACCTTGTGAATCGTTGTGGACTCTTTGTTGCGGAGTCACCTAGTGCAG” was tested, and the binding signal was 8070 fluorescence intensity (a.u.). For “GAATCTAGATGCTGTTCCATCTCCAAATGTTCAAACCCTCCGGAGTCACCTAGTGCAG”, the binding signal was 8360 fluorescence intensity (a.u.). In the case of “AAATATTGAACCCTGCCTGTTTGTGACTTTTCAAATTTTTCGGAGTCACCTAGTGCAG”, the binding signal is reported as 8520 fluorescence intensity (a.u.).
